These are yes or no findings as the source states them, for the method shown. Binding seen in cells or lysates may run through a third protein. A yes stands for co-enrichment or nearness to the bait. Other partners may have been found.

The chains behind the UniProt entries cited, without tags or fusion partners.
UniProt Q8R4B8: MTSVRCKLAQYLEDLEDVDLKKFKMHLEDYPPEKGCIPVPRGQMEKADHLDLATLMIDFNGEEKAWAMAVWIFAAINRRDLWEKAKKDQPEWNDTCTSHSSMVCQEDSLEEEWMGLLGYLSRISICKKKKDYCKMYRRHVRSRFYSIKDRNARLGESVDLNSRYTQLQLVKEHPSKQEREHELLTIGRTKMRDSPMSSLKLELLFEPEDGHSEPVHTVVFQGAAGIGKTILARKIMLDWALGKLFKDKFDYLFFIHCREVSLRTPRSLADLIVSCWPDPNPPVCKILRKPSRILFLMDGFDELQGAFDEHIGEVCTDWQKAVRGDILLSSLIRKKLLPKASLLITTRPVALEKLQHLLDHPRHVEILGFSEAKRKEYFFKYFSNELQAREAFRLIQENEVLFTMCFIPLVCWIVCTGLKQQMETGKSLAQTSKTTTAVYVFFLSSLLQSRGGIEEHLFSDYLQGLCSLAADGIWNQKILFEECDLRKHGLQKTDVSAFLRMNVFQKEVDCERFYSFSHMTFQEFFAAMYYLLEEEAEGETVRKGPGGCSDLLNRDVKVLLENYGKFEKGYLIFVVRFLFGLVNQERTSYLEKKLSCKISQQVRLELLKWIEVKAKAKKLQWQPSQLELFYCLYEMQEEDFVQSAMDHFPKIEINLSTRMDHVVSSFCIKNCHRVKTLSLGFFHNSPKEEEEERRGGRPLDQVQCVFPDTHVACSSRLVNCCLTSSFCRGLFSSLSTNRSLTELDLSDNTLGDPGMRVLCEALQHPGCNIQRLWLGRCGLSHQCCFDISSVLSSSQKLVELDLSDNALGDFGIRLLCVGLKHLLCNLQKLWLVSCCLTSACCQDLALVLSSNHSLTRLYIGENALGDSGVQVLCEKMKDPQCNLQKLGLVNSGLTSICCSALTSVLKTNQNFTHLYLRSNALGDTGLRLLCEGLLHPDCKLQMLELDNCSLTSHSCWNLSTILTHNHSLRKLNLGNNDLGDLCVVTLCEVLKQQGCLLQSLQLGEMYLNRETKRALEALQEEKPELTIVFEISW

This assay has as its target T1, G protein-coupled receptor 120 (mouse (endogenous in Kupffer cell line BNCC340733)) (UniProt Q7TMA4).
T1 sequence: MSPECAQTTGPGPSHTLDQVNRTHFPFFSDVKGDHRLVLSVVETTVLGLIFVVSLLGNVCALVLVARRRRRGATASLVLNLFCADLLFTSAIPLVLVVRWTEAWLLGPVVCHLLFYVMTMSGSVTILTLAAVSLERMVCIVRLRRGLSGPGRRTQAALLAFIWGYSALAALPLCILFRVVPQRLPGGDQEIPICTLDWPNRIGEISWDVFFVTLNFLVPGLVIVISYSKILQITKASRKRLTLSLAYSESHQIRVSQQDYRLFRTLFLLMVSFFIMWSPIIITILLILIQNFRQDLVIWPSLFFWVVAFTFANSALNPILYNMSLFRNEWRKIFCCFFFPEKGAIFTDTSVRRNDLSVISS
The assay is described as follows: affinity purification with mass spectrometry; immunoprecipitation of endogenous GPR120 from Kupffer cells treated or not with 100 ng/mL LPS for 12 h; precipitate analysed by LC-MS/MS.

In the case of “NOD-like receptor pyrin domain-containing protein 3 (from UniProt Q8R4B8 1-1033)”, the binding entry is reported as “binds”.

(Values after paper PMC7803970.)
